Consider 33 compounds from the supplement of paper PMC4604168 (melanoma cell lines).

The other results are listed elsewhere or left out. Single values are uncertain, as repeats are few or missing.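 Cells were imaged in 1,536-well plates, and nuclei stained with an antibody against cleaved PARP were counted against all DNA-stained nuclei to give the apoptosis fraction. Screening doses were chosen to leave most cells alive, and resting and induced cleaved-PARP levels differ strongly between cell lines.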

The subject of the experiment is SkMel5. The experiment in a line: cleaved PARP positive nuclei fraction relative to DMSO control; melanoma cells; higher = more apoptosis. To be noted: library dose: low library concentration; 72 h.
As for `Cn1c(Nc2ccc(C(F)(F)F)cc2)nc2cc(Oc3ccnc(-c4ncc(C(F)(F)F)[nH]4)c3)ccc21` + CCc1ccc(CCOc2ccc(CC3SC(=O)NC3=O)cc2)nc1 [pioglitazone] (first compound 0.08 µM, partner dose 2 µM), the “cleaved PARP positive nuclei fraction” value turned out to be 39.6%. To `OCCn1cc(-c2cnc3nnn(Cc4ccc5ncccc5c4)c3n2)cn1` + N#Cc1c(O)c2c(-c3ccc(-c4ccccc4O)cc3)csc2[nH]c1=O [A769662] (first compound 1 µM, partner dose 2 µM) belongs 42.7%; to `C=CCn1c(=O)c2cnc(Nc3ccc(N4CCN(C)CC4)cc3)nc2n1-c1cccc(C(C)(C)O)n1` + O=C(O)C(=O)Nc1sc2c(c1C(=O)O)CCNC2 [TCS401] (first compound 0.02 µM, partner dose 1.66667 µM), 91.6%; to `Cn1nnc2c(C(N)=O)ncn2c1=O` [temozolomide] + COC(=O)c1sccc1S(=O)(=O)Nc1ccc(Nc2ccccc2)cc1OC [GSK0660] (first compound 2 µM, partner dose 1 µM), 76.8%. To `C[C@@H]1CCN(C(=O)CC#N)C[C@@H]1N(C)c1ncnc2[nH]ccc12` + Oc1nc(-c2ccc(C(F)(F)F)cc2)nc2c1CSCC2 [XAV939] (first compound 1 µM, partner dose 2 µM) belongs 30.1%; to `COCC[n+]1c2c(n(Cc3cnccn3)c1C)C(=O)c1ccccc1C2=O` + O=C(O)C(=O)Nc1sc2c(c1C(=O)O)CCNC2 [TCS401] (first compound 0.0004 µM, partner dose 1.66667 µM), 49%; to `O=C(CCCCCCC(=O)Nc1ccccc1)NO` [vorinostat] + Oc1nc(-c2ccc(C(F)(F)F)cc2)nc2c1CSCC2 [XAV939] (first compound 0.08 µM, partner dose 2 µM), 108%. With `COc1cc(Nc2ncc(F)c(Nc3ccc4c(n3)NC(=O)C(C)(C)O4)n2)cc(OC)c1OC` [Tamatinib] + COc1ccc(COc2ccc(Cc3cnc(N)nc3N)cc2OC)cc1 [GW2580] (first compound 0.4 µM, partner dose 1 µM) the figure was 147%. For `Cc1nc(Nc2ncc(C(=O)Nc3c(C)cccc3Cl)s2)cc(N2CCN(CCO)CC2)n1` [dasatanib] + CCc1ccc(CCOc2ccc(CC3SC(=O)NC3=O)cc2)nc1 [pioglitazone] (first compound 0.004 µM, partner dose 2 µM), the “cleaved PARP positive nuclei fraction” value was 102%. With `Cc1cc(N2CCOCC2)cc2[nH]c(-c3c(NC[C@@H](O)c4cccc(Cl)c4)cc[nH]c3=O)nc12` + Cn1cc(/C=C2\C(=O)Nc3cccnc32)c2ccccc21 [GW441756] (first compound 0.2 µM, partner dose 0.4 µM) the figure was 94.9%; with `O=C(CCCCCCC(=O)Nc1ccccc1)NO` [vorinostat] + O=C(O)C(=O)Nc1sc2c(c1C(=O)O)CCNC2 [TCS401] (first compound 0.08 µM, partner dose 1.66667 µM), 84.2%. To `OCCn1cc(-c2cnc3nnn(Cc4ccc5ncccc5c4)c3n2)cn1` + c1cc(-c2cnn3cc(-c4ccc(OCCN5CCCCC5)cc4)cnc23)ccn1 [Dorsomorphin] (first compound 1 µM, partner dose 0.4 µM) belongs 76.2%; to `CC1(C)NC(=O)N(c2ccc([N+](=O)[O-])c(C(F)(F)F)c2)C1=O` [nilutamide] + CCCCCCCCCCCC1=C(O)C(=O)C=C(O)C1=O [Embelin] (first compound 1 µM, partner dose 1.2 µM), 100%.

Take `Cn1nnc2c(C(N)=O)ncn2c1=O` [temozolomide] + COc1ccc2c(c1)CCC1C2CCC2(C)C(NCCCCCCN3C(=O)C=CC3=O)CCC12 [U73122] (first compound 2 µM, partner dose 0.4 µM): the “cleaved PARP positive nuclei fraction” value worked out at 49.5%. With `Cn1nnc2c(C(N)=O)ncn2c1=O` [temozolomide] + O=S(=O)(c1ccccc1)N(CC(F)(F)F)c1ccc(C(O)(C(F)(F)F)C(F)(F)F)cc1 [T0901317] (first compound 2 µM, partner dose 1.4 µM) the figure was 68.3%; with `O=C(CCCCCCC(=O)Nc1ccccc1)NO` [vorinostat] + O=c1cc(-c2cccc3c2Sc2ccccc2S3)oc(N2CCOCC2)c1 [KU55933] (first compound 0.08 µM, partner dose 1 µM), 29%. To `C[C@@H]1CCN(C(=O)CC#N)C[C@@H]1N(C)c1ncnc2[nH]ccc12` + CC(C)CCN1c2nc(Nc3cc(F)c(O)c(F)c3)ncc2N(C)C(=O)C1C [BID1870] (first compound 1 µM, partner dose 0.2 µM) belongs 54.6%; to `Cn1nnc2c(C(N)=O)ncn2c1=O` [temozolomide] + COc1ccc(-c2ccc3c(N4CCOCC4)nc(N4C[C@@H](C)O[C@@H](C)C4)nc3n2)cc1CO [KU0063794] (first compound 2 µM, partner dose 0.02 µM), 84.4%.

On to `Nc1cccc2c1CN(C1CCC(=O)NC1=O)C2=O` (stereo not drawn) [lenalidomide] + CCN(CC)CCCCNc1ncc2cc(-c3cc(OC)cc(OC)c3)c(NC(=O)NC(C)(C)C)nc2n1 [PD173074] (first compound 1 µM, partner dose 0.1 µM), for which the “cleaved PARP positive nuclei fraction” value worked out at 49.2%. Regarding `Cc1nc(Nc2ncc(C(=O)Nc3c(C)cccc3Cl)s2)cc(N2CCN(CCO)CC2)n1` [dasatanib] + CCCCCCCCCCCC1=C(O)C(=O)C=C(O)C1=O [Embelin] (first compound 0.004 µM, partner dose 1.2 µM), the “cleaved PARP positive nuclei fraction” value amounted to 31%. To `O=C(Nc1cccc(Cl)c1)Nc1ncc(CCNc2ncnc3ccsc23)s1` + Cn1cc(/C=C2\C(=O)Nc3cccnc32)c2ccccc21 [GW441756] (first compound 0.0008 µM, partner dose 0.4 µM) belongs 95.7%; to `Nc1cccc2c1CN(C1CCC(=O)NC1=O)C2=O` (stereo not drawn) [lenalidomide] + COc1ccc(COc2ccc(Cc3cnc(N)nc3N)cc2OC)cc1 [GW2580] (first compound 1 µM, partner dose 1 µM), 57.8%; to `Cc1ccc(NC(=O)c2cccc(N(C)C)c2)cc1NC(=O)c1ccc(O)cc1` + O=c1cc(-c2cccc3c2Sc2ccccc2S3)oc(N2CCOCC2)c1 [KU55933] (first compound 2 µM, partner dose 1 µM), 85.4%. `OCCn1cc(-c2cnc3nnn(Cc4ccc5ncccc5c4)c3n2)cn1` + Cc1cc([N+](=O)[O-])ccc1NS(=O)(=O)c1cc(Cl)ccc1Cl [FH535] (first compound 1 µM, partner dose 1 µM): the “cleaved PARP positive nuclei fraction” value was found to be 79.2%. To `Cn1cncc1[C@@](N)(c1ccc(Cl)cc1)c1ccc2c(c1)c(-c1cccc(Cl)c1)cc(=O)n2C` [tipifarnib] + O=c1cc(-c2cccc3c2Sc2ccccc2S3)oc(N2CCOCC2)c1 [KU55933] (first compound 0.01 µM, partner dose 1 µM) belongs 64.4%.

As for `NC(=O)Nc1cc(-c2cccc(F)c2)sc1C(=O)N[C@H]1CCCNC1` + c1cc(-c2cnn3cc(-c4ccc(OCCN5CCCCC5)cc4)cnc23)ccn1 [Dorsomorphin] (first compound 0.02 µM, partner dose 0.4 µM), the “cleaved PARP positive nuclei fraction” value stood at 30.9%. To `O=C(Nc1cccc(Cl)c1)Nc1ncc(CCNc2ncnc3ccsc23)s1` + CCc1ccc(CCOc2ccc(CC3SC(=O)NC3=O)cc2)nc1 [pioglitazone] (first compound 0.0008 µM, partner dose 2 µM) belongs 74.4%; to `C[C@]1(c2nc3c(C(N)=O)cccc3[nH]2)CCCN1` [Veliparib] + COc1ccc2c(c1)CCC1C2CCC2(C)C(NCCCCCCN3C(=O)C=CC3=O)CCC12 [U73122] (first compound 1.4 µM, partner dose 0.4 µM), 41.2%; to `C[C@@H]1CCN(C(=O)CC#N)C[C@@H]1N(C)c1ncnc2[nH]ccc12` + COc1ccc2c(c1)CCC1C2CCC2(C)C(NCCCCCCN3C(=O)C=CC3=O)CCC12 [U73122] (first compound 1 µM, partner dose 0.4 µM), 68.3%. For the compound `OCCn1cc(-c2cnc3nnn(Cc4ccc5ncccc5c4)c3n2)cn1` + COC(=O)c1sccc1S(=O)(=O)Nc1ccc(Nc2ccccc2)cc1OC [GSK0660] (first compound 1 µM, partner dose 1 µM), the “cleaved PARP positive nuclei fraction” value is 34.5%. Regarding `O=C(Nc1cccc(Cl)c1)Nc1ncc(CCNc2ncnc3ccsc23)s1` + Oc1nc(-c2ccc(C(F)(F)F)cc2)nc2c1CSCC2 [XAV939] (first compound 0.0008 µM, partner dose 2 µM), the “cleaved PARP positive nuclei fraction” value came out at 132%. Turning to `O=C(Nc1cccc(Cl)c1)Nc1ncc(CCNc2ncnc3ccsc23)s1` + COc1cc2ncnc(Nc3ccc(Oc4ccccc4)cc3)c2cc1OC [SrcI1] (first compound 0.0008 µM, partner dose 2 µM), the “cleaved PARP positive nuclei fraction” value came to 79.6%. To `COc1cc(Nc2ncc(F)c(Nc3ccc4c(n3)NC(=O)C(C)(C)O4)n2)cc(OC)c1OC` [Tamatinib] + COc1cc(N2CCC(N3CCN(C)CC3)CC2)ccc1Nc1ncc(Cl)c(Nc2ccccc2S(=O)(=O)C(C)C)n1 [NVP-TAE684] (first compound 0.4 µM, partner dose 0.08 µM) belongs 81.5%.
